Assay results: publication PMC5943507
No constants are given. Whether binding was seen depends on the method and setting. In cells and extracts the contact can be indirect. Some binding calls cover weakened binding; strength is not graded here.

Sequences of proteins named here, by UniProt entry; tags and fusion partners are left off.
UniProt P06493: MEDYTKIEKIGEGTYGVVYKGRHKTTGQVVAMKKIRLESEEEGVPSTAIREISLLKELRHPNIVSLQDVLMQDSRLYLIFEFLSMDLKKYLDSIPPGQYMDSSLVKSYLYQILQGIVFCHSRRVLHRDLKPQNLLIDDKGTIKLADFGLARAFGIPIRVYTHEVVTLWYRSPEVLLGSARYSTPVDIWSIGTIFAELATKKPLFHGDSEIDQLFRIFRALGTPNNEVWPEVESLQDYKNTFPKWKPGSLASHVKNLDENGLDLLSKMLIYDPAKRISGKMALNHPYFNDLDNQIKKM
UniProt P38936: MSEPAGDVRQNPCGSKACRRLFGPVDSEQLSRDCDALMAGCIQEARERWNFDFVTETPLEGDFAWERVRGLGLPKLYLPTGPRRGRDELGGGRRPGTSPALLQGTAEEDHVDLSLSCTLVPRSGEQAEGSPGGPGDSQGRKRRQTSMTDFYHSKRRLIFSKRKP

Biological target: cyclin-dependent kinase 1 (CDK1) (human (endogenous in H460)) (UniProt P06493)
Assay: co-IP; 200 µg of cleared cell extract of H460-p21 or H460-pCMV cells; anti-CDK1 antibody (Upstate) or control rabbit IgG; Protein G beads; eluate blotted for CDK1 and p21

Question: With “cyclin-dependent kinase inhibitor 1 (p21CIP1) (from UniProt P38936 1-164)” as the substance, how does the binding read?
Answer: Its binding is “binds”.
